Some results were stated once for a whole list of compounds, not compound by compound.
Legend:
Format in all cases: biochemical
Lp-PLA2 in human plasma = molecular target: T1, Lp-PLA2 in human plasma (Homo sapiens, UniProt Q13093); test: (3a) Lp-PLA2 human plasma Thio-PAF assay; settings: (3a) Thio-PAF assay, pooled human plasma, Examples 1-265 and 413-430 were tested here
T1 construct: from tissue; host or cells: pooled human plasma
T1 sequence (Q13093 22-441): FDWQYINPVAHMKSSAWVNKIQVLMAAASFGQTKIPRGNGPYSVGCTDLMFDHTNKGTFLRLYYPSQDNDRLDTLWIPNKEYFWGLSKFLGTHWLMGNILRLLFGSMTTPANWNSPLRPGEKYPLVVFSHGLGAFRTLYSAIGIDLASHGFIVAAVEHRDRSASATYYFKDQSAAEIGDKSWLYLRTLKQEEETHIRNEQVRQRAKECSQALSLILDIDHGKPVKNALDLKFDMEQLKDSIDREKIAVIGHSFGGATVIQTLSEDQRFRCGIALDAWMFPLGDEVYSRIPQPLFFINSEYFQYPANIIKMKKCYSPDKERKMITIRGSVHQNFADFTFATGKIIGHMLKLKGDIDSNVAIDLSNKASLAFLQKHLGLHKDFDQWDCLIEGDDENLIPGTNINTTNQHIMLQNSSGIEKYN
Source text: (3) Lipoprotein-Associated Phospholipase A2 (Lp-PLA2) Human Plasma Assay
The human plasma assay utilizes a thioester analog of PAF (phosphatidylcholine), where hydrolysis yields to the formation of a phospholipid containing a free thiol group. The amount of thiol is quantitated continuously by reacting with CPM (7-diethylamino-3-(4′-maleimidylphenyl)-4-methylcoumarin), a maleimide which increases in fluoresence after Michael addition of thiols. This assay may detect the activity of Lp-PLA2 in human plasma, as determined by specific inhibition by Lp-PLA2 inhibitors.
The thio-PAF assay was run as a quenched 15 μL assay. Compounds source plate was prepared by making 1:3 (by volume) serial dilution of the compounds into pure DMSO on 384-well microplate. 0.01 μL of compounds on compound source plate were transferred to 384 well Greiner 784076 (black) low-volume plates by ECHO liquid dispenser. 8 μL pooled human plasma, which was previously aliquoted and frozen, was added. Plates were centrifuged for 10 sec at 500 rpm. After 30 minutes preincubation, 2 μL of substrate solution comprising 2.5 mM 2-thio-PAF [from ethanol stock], 32 μM CPM [from a DMSO stock] and 3.2 mM NEM (N-ethylmaleimide) [made fresh daily in DMSO] in assay buffer of 50 mM HEPES, pH 7.4, 150 mM NaCl, 1 mM CHAPS was added to 384 well Greiner 784076 (black) low-volume plates by BRAVO liquid handling station. After 2 mins, reaction was quenched with 5 μL of 5% aqueous trifluoroacetic acid (TFA). Plates were covered to protect from light and incubated for 40 min at room temperature. Plates were read at ex: 380/em: 485 using Envision microplate reader. PIC50 data, curve and QC analysis were conducted by using XLFit module in Excel.

[1] = molecular target: Recombinant human PLA2 VIIB (Novel Serine Dependent Lipase, NSDL) (Homo sapiens, UniProt Q99487); test: (2a) PLA2 VIIB assay (PED6 substrate); settings: Examples 1-9, 11-105, 107-193, 203-259 and 413-430 were tested here
[2] = molecular target: recombinant human PLA2-VIIB (Homo sapiens, UniProt Q99487); test: (2b) Alternative PLA2 VIIB assay (2-thio-PAF substrate); settings: Examples 266-412 were tested here

Molecule	selectivity between human recombinant Lp-PLA2 and PLA2 VIIB [2]	other results
3-((3,5-Difluoro-4-(2-fluoroethoxy)benzyl)oxy)-7,8,8a,9-tetrahydropyrrolo[1,2′:3,4]imidazo[1,2-c]pyrimidin-1(6H)-one [Example E209]	–	pIC50 in the Lp-PLA2 human plasma assay (Lp-PLA2 in human plasma): at least 5.0
O=c1nc(OCc2cc(F)c(Oc3ccnc(C(F)(F)F)c3)c(F)c2)cc2n1C[C@H]1CCCN21 [Example E67, (R)-3-((3,5-difluoro-4-((2-(trifluoromethyl)pyridin-4-yl)oxy)benzyl)oxy)-7,8,8a, 9-tetra hydropyrrolo[1′,2′:3,4]imidazo[1,2-c]pyrimidin-1(6H)-one]	–	selectivity between human recombinant Lp-PLA2 and PLA2 VIIB [1]: at least 100 fold; pIC50 in the Lp-PLA2 human plasma assay (Lp-PLA2 in human plasma; listed as 67): at least 7.0; pIC50 in the Lp-PLA2 human plasma assay (Lp-PLA2 in human plasma; listed as Example 67): at least 5.0
N[C@H]1C[C@@H]2Cn3c(cc(OCc4cc(F)c(Oc5ccnc(C(F)(F)F)c5)c(F)c4)nc3=O)N2C1 [Example E388, (7S,8aR)-7-Amino-3-((3,5-difluoro-4-((2-(trifluoromethyl)pyridin-4-yl)oxy)benzyl)oxy)-7,8,8a,9-tetrahydropyrrolo[1′,2′:3,4]imidazo[1,2-c]pyrimidin-1(6H)-one]	at least 100 fold	–
N#Cc1cc(COc2cc3n(c(=O)n2)C[C@@H]2C[C@H](N)CN32)ccc1F [Example E391, 5-((((7S,8aS)-7-Amino-1-oxo-1,6,7,8,8a,9-hexahydropyrrolo[1′,2′:3,4]imidazo[1,2-c]pyrimidin-3-yl)oxy)methyl)-2-fluorobenzonitrile]	at least 100 fold	–
N[C@@H]1C[C@H]2Cn3c(cc(OCc4cc(F)c(Oc5ccnc(C(F)(F)F)c5)c(F)c4)nc3=O)N2C1 [Example E392, (7R,8aS)-7-Amino-3-((3,5-difluoro-4-((2-(trifluoromethyl)pyridin-4-yl)oxy)benzyl)oxy)-7,8,8a,9-tetrahydropyrrolo[1′,2′:3,4]imidazo[1,2-c]pyrimidin-1(6H)-one]	at least 100 fold	–
Cn1cc(Oc2c(F)cc(COc3cc4n(c(=O)n3)CC3(COC3)N4)cc2F)cn1 [Example E393]	at least 100 fold	–
O=c1nc(OCc2ccc(F)c(F)c2)cc2n1CC1(COC1)N2 [Example E396, 7-((3,4-difluorobenzyl)oxy)-1H-spiro[imidazo[1,2-c]pyrimidine-2,3′-oxetan]-5(3H)-one]	at least 100 fold	–

The next lines start with results.

selectivity between human recombinant Lp-PLA2 and PLA2 VIIB [2]	Molecule	other results
at least 100 fold	N[C@H]1C[C@H]2Cn3c(cc(OCc4cc(F)c(Oc5ccnc(C(F)(F)F)c5)c(F)c4)nc3=O)N2C1 [Example E390, (7S,8aS)-7-Amino-3-((3,5-difluoro-4-((2-(trifluoromethyl)pyridin-4-yl)oxy)benzyl)oxy)-7,8,8a,9-tetrahydropyrrolo[1′,2′:3,4]imidazo[1,2-c]pyrimidin-1(6H)-one]	–
at least 100 fold	Cc1ccc(Oc2c(F)cc(COc3cc4n(c(=O)n3)CC3(COC3)N4)cc2F)cn1 [Example E394, 7-((3,5-Difluoro-4-((6-methylpyridin-3-yl)oxy)benzyl)oxy)-1H-spiro[imidazo[1,2-c]pyrimidine-2,3′-oxetan]-5(3H)-one]	–
at least 100 fold	O=c1nc(OCc2cc(F)c(Oc3ccnc(C(F)(F)F)c3)c(F)c2)cc2n1CC1(COC1)N2 [Example E395, 7-((3,5-difluoro-4-((2-(trifluoromethyl)pyridin-4-yl)oxy)benzyl)oxy)-1H-spiro[imidazo[1,2-c]pyrimidine-2,3′-oxetan]-5(3H)-one]	–

Source: US11999746B2, “Compounds” (GlaxoSmithKline Intellectual Property Development Limited, priority 2014, dated 2024)
